PubChem BioAssay AID1259405, NCATS | 2018
This is an unselected part of about 50,000 reagents. In the full data, about 4,000 (8%) are marked active. 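Mouse siRNA library applied to hamster cells; one well for each siRNA.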 Unmarked entries are inactive. The numbers tell different reagents against one gene apart.

Purpose: 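Knock-downs that lift recombinant protein yield in hamster ovary cells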 (primary screen)
System: Chinese hamster CHO-K1 ovary cells with stable secreted eGFP expression
Reagent: single siRNA against mouse genes, 0.8 pmol siRNA per well (2 µl of 400 nM stock)
Time to read-out: 3 days
Measured: 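Per-well intracellular GFP measured by laser scanning cytometry, plus viability from ATP luminescence, each relative to plate median of non-targeting control wells, in %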
Direction: GFP, % of control: higher = more GFP per well, higher productivity; viability (ATP), % of control: higher = more viable cells (more ATP)
Active means: 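a knock-down is called active if GFP reaches 120% or more of non-targeting control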

Zdhhc8 (zinc finger, DHHC domain containing 8) #1 — GFP, % of control = 119; viability (ATP), % of control = 57
Zdhhc8 (zinc finger, DHHC domain containing 8) #2 — GFP, % of control = 86.5; viability (ATP), % of control = 74.2
Zdhhc8 (zinc finger, DHHC domain containing 8) #3 — GFP, % of control = 86.5; viability (ATP), % of control = 99.1
Aldh8a1 (aldehyde dehydrogenase 8 family, member A1) #1 — GFP, % of control = 164 (active); viability (ATP), % of control = 83.7
Aldh8a1 (aldehyde dehydrogenase 8 family, member A1) #2 — GFP, % of control = 101; viability (ATP), % of control = 67.6
Aldh8a1 (aldehyde dehydrogenase 8 family, member A1) #3 — GFP, % of control = 92.3; viability (ATP), % of control = 75.1
Zup1 (zinc finger containing ubiquitin peptidase 1) #1 — GFP, % of control = 64; viability (ATP), % of control = 65.3
Zup1 (zinc finger containing ubiquitin peptidase 1) #2 — GFP, % of control = 41.5; viability (ATP), % of control = 73
Zup1 (zinc finger containing ubiquitin peptidase 1) #3 — GFP, % of control = 84.4; viability (ATP), % of control = 98.7
Zfp950 (zinc finger protein 950) #1 — GFP, % of control = 21.2; viability (ATP), % of control = 15.2
Zfp950 (zinc finger protein 950) #2 — GFP, % of control = 112; viability (ATP), % of control = 130
Zfp950 (zinc finger protein 950) #3 — GFP, % of control = 85.9; viability (ATP), % of control = 99.5
Serpinb3d #1 — GFP, % of control = 55.4; viability (ATP), % of control = 86.4
Serpinb3d #2 — GFP, % of control = 55; viability (ATP), % of control = 82.6
Serpinb3d #3 — GFP, % of control = 52.5; viability (ATP), % of control = 80.2
Anp32b (acidic nuclear phosphoprotein 32 family member B) #1 — GFP, % of control = 75.6; viability (ATP), % of control = 100
Anp32b (acidic nuclear phosphoprotein 32 family member B) #2 — GFP, % of control = 80.9; viability (ATP), % of control = 116
Anp32b (acidic nuclear phosphoprotein 32 family member B) #3 — GFP, % of control = 88.6; viability (ATP), % of control = 104
Dbi (diazepam binding inhibitor) #1 — GFP, % of control = 143 (active); viability (ATP), % of control = 124
Dbi (diazepam binding inhibitor) #2 — GFP, % of control = 57.2; viability (ATP), % of control = 65.8
Dbi (diazepam binding inhibitor) #3 — GFP, % of control = 17.6; viability (ATP), % of control = 27.5
Nup210 (nucleoporin 210) #1 — GFP, % of control = 77.8; viability (ATP), % of control = 59.7
Nup210 (nucleoporin 210) #2 — GFP, % of control = 57.6; viability (ATP), % of control = 78.7
Pcdha9 (protocadherin alpha 9) #1 — GFP, % of control = 99.2; viability (ATP), % of control = 93.5
Pcdha9 (protocadherin alpha 9) #2 — GFP, % of control = 76.6; viability (ATP), % of control = 61.2
Pcdha9 (protocadherin alpha 9) #3 — GFP, % of control = 73.1; viability (ATP), % of control = 73.5
Bud23 (BUD23, rRNA methyltransferase and ribosome maturation factor) #1 — GFP, % of control = 77.5; viability (ATP), % of control = 93.6
Bud23 (BUD23, rRNA methyltransferase and ribosome maturation factor) #2 — GFP, % of control = 60; viability (ATP), % of control = 70.9
Bud23 (BUD23, rRNA methyltransferase and ribosome maturation factor) #3 — GFP, % of control = 77.3; viability (ATP), % of control = 95.1

3 entries from above, reformatted:
target gene,siRNA no.,"GFP, % of control","viability (ATP), % of control"
Nup210 (nucleoporin 210),2,57.6,78.7
Pcdha9 (protocadherin alpha 9),1,99.2,93.5
Pcdha9 (protocadherin alpha 9),2,76.6,61.2
